The text below walks through data of PubChem BioAssay AID248 (DTP/NCI, 2004).

For this test, the system named is L1210 leukemia ip in BDF1 mice, survival T/C. In words: NCI In Vivo Anticancer Drug Screen. Data for tumor model L1210 Leukemia (intraperitoneal) in B6D2F1 (BDF1) mice. The note with it: T/C endpoint: mean survival time, higher T/C = longer survival.
[1] abbreviates: dose: 6.25 mg/kg/injection, schedule: Q01DX009 (ip), vehicle: other.
The mark [2] stands for this setting: dose: 400.0 mg/kg/injection, schedule: Q01DX001 (ip), vehicle: saline.

Molecules are shown by their SMILES. The list does not hold the whole screen: it gathers tests that were run many times, whatever their T/C, doses with no T/C, and many T/C values between a quarter and a half above the control. Other doses and runs of a compound stand elsewhere. T/C is the treated group as % of the vehicle group. Some doses have a count of surviving animals in place of a T/C: the source files T/C as zero there, which appears to mark a toxic dose or a test without result, not a measured value. Some survivor counts are full or nearly so, which does not show that the dose was tolerated: the source hardly ever lists a survival T/C far under the control, and the zero likely stands for such cases as well. Survivors were counted at the toxicity check, usually on the fifth day, unless a day is given; later deaths do not show. Schedule codes are those of the source, read here as Q, the interval in days (D) or hours (H), X, the number of doses. For survival time, the PubChem record calls one and a half times the control and up active, and a quarter to a half above the control has no call in these data; cut-offs in other NCI protocols can differ.

As for `C[C@H]1CN1C1=CC(=O)C(N2C[C@@H]2C)=CC1=O`, the T/C is 127 % of control (dose: 1.33 mg/kg/injection, schedule: Q04DX003 (ip), vehicle: other); 127 % of control (dose: 2.66 mg/kg/injection, schedule: Q04DX003 (ip), vehicle: saline with Tween-80); 136 % of control (dose: 3.0 mg/kg/injection, schedule: Q04DX003 (ip), vehicle: other); 146 % of control (dose: 3.13 mg/kg/injection, schedule: Q01DX009 (ip), vehicle: other); 146 % of control (dose: 3.5 mg/kg/injection, schedule: Q01DX009 (ip), vehicle: other); 125 % of control (dose: 4.0 mg/kg/injection, schedule: Q01DX001 (ip), vehicle: other). Also, the T/C by setting is: (dose: 4.0 mg/kg/injection, schedule: Q04DX003 (ip), vehicle: saline with Tween-80) 139 % of control; (dose: 6.0 mg/kg/injection, schedule: Q04DX003 (ip), vehicle: saline with Tween-80) 138 % of control; (dose: 8.0 mg/kg/injection, schedule: Q01DX001 (ip), vehicle: other) 131 % of control; (dose: 8.0 mg/kg/injection, schedule: Q01DX009 (ip), vehicle: other) 126 % of control; (dose: 12.5 mg/kg/injection, schedule: Q04DX003 (ip), vehicle: saline with Tween-80) 129 % of control; (dose: 16.0 mg/kg/injection, schedule: Q04DX003 (ip), vehicle: Klucel (hydroxypropylcellulose) (HPC)) 125 % of control. Moreover, the T/C (dose: 19.0 mg/kg/injection, schedule: Q01DX001 (ip), vehicle: other) is 129 % of control. Also, the survivor count is, setting by setting: under setting [1], 6 of 6; (dose: 38.0 mg/kg/injection, schedule: Q01DX001 (ip), vehicle: other) 0 of 6; (dose: 50.0 mg/kg/injection, schedule: Q04DX003 (ip), vehicle: saline with Tween-80) 5 of 6; (dose: 75.0 mg/kg/injection, schedule: Q01DX001 (ip), vehicle: other) 1 of 6; (dose: 150.0 mg/kg/injection, schedule: Q01DX001 (ip), vehicle: other) 0 of 6; (dose: 300.0 mg/kg/injection, schedule: Q01DX001 (ip), vehicle: other) 0 of 6.

On to `CC(=O)OC(C)(C)Cc1ccccc1`, for which, where the note is “dose: 400.0 mg/kg/injection, schedule: Q01DX009 (ip), vehicle: saline with Tween-80”, the survivor count was 2 of 6.

Turning to `O=CO.[Cu+2]`, the survivor count is, setting by setting: (dose: 100.0 mg/kg/injection, schedule: Q01DX001 (ip), vehicle: saline) 0 of 6; (dose: 200.0 mg/kg/injection, schedule: Q01DX001 (ip), vehicle: saline) 0 of 6; under setting [2], 0 of 6.

Regarding `c1cc[c]([Pb]([S]c2nc3ccccc3[nH]2)([c]2ccccc2)[c]2ccccc2)cc1`, the survivor count is, setting by setting: (dose: 25.0 mg/kg/injection, schedule: Q04DX002 (ip), vehicle: gum acacia) 3 of 3; (dose: 50.0 mg/kg/injection, schedule: Q04DX002 (ip), vehicle: gum acacia) 1 of 3; (dose: 100.0 mg/kg/injection, schedule: Q04DX002 (ip), vehicle: gum acacia) 1 of 3; (dose: 200.0 mg/kg/injection, schedule: Q04DX002 (ip), vehicle: gum acacia) 1 of 3; (dose: 400.0 mg/kg/injection, schedule: Q04DX002 (ip), vehicle: gum acacia) 0 of 3.

With `CN(C)Cc1cc(C(C)(C)CC(C)(C)C)cc(CN(C)C)c1O`, the survivor count (dose: 400.0 mg/kg/injection, schedule: Q01DX009 (ip), vehicle: Klucel (hydroxypropylcellulose) (HPC)) is listed as 0 of 6.

For the compound `CCN(CC)CCOC(=O)c1ccccc1N(c1ccccc1)c1ccccc1`, the survivor count (dose: 200.0 mg/kg/injection, schedule: Q04DX003 (ip), vehicle: acetone) is given as 1 of 6; the survivor count (dose: 225.0 mg/kg/injection, schedule: Q01DX009 (ip), vehicle: acetone) was 1 of 6; the survivor count (dose: 250.0 mg/kg/injection, schedule: Q01DX015 (ip), vehicle: saline) is 0 of 6; the survivor count (dose: 400.0 mg/kg/injection, schedule: Q04DX003 (ip), vehicle: acetone) was 0 of 6; the survivor count (dose: 500.0 mg/kg/injection, schedule: Q01DX015 (ip), vehicle: saline) was 0 of 6.

Consider `CCN(CC)C(C)(O)CN` (stereo not drawn), for which, under setting [2], the survivor count is listed as 1 of 4.

Regarding `NC(N)=NCC(O)c1ccccc1` (stereo not drawn), the survivor count by setting is: (dose: 50.0 mg/kg/injection, schedule: Q01DX001 (ip), vehicle: Klucel (hydroxypropylcellulose) (HPC)) 0 of 6; (dose: 100.0 mg/kg/injection, schedule: Q01DX001 (ip), vehicle: Klucel (hydroxypropylcellulose) (HPC)) 1 of 6; (dose: 200.0 mg/kg/injection, schedule: Q01DX001 (ip), vehicle: Klucel (hydroxypropylcellulose) (HPC)) 0 of 6.

Regarding `CN(C)CCCC1c2ccccc2Oc2ccc(C(F)(F)F)cc21` (stereo not drawn), the survivor count is, setting by setting: (dose: 50.0 mg/kg/injection, schedule: Q04DX003 (ip), vehicle: saline) 1 of 4; (dose: 100.0 mg/kg/injection, schedule: Q01DX009 (ip), vehicle: saline) 2 of 6; (dose: 100.0 mg/kg/injection, schedule: Q04DX003 (ip), vehicle: saline) 0 of 4; (dose: 200.0 mg/kg/injection, schedule: Q01DX009 (ip), vehicle: saline) 0 of 6; (dose: 200.0 mg/kg/injection, schedule: Q04DX003 (ip), vehicle: saline) 0 of 4; (dose: 400.0 mg/kg/injection, schedule: Q01DX009 (ip), vehicle: saline) 0 of 6. Besides, for the setting “dose: 400.0 mg/kg/injection, schedule: Q04DX003 (ip), vehicle: saline”, the survivor count was 0 of 4.

`O=C1CC=C2C3CC4N(CCC45c4ccccc4N1C25)C/C3=C\CBr` (stereo not drawn): the survivor count reads like this: (dose: 18.75 mg/kg/injection, schedule: Q01DX001 (ip), vehicle: other) 2 of 6; (dose: 37.5 mg/kg/injection, schedule: Q01DX001 (ip), vehicle: other) 0 of 6.

Take `CCCCCP(=O)(O)O`: the survivor count (dose: 400.0 mg/kg/injection, schedule: Q04DX002 (ip), vehicle: saline) was 1 of 3.

On to `N#CCC(C#N)N1CCCCC1` (stereo not drawn), for which the survivor count reads like this: (dose: 3.12 mg/kg/injection, schedule: Q01DX009 (ip), vehicle: other) 6 of 6; under setting [1], 6 of 6; (dose: 12.5 mg/kg/injection, schedule: Q01DX009 (ip), vehicle: other) 6 of 6; (dose: 25.0 mg/kg/injection, schedule: Q01DX001 (ip), vehicle: other) 2 of 6; (dose: 50.0 mg/kg/injection, schedule: Q01DX001 (ip), vehicle: other) 0 of 6.
